In patent US20180162928A1 (Janssen / Centocor, published 2018):
Where a chain is given by its changes, count along the chain named. Results are given in words; binding and its absence hold for the method and conditions named. Some binding calls cover weakened binding; strength is not graded here.

Chains of the proteins cited; added tags and fusions are not shown. Lines headed by an entry give the natural chain unless they say otherwise; changes in a name come on top.
UniProt Q9NZQ7: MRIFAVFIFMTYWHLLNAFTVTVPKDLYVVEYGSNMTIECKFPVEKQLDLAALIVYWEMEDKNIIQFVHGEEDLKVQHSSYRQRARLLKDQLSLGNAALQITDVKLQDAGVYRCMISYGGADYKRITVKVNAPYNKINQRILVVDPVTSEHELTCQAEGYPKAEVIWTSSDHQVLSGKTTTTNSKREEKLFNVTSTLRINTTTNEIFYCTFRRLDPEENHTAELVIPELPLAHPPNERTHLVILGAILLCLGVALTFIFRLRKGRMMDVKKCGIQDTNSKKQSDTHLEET

B1: ISOP121BR5P1F7 (designed binder, not shown: small tags and cut ends)
chain: LPAPKNLVVSRVTEDSARLSWHDATWQYFDSFLIQYQESEKVGEAIVLTVPGSERSYDLTGLKPGTEYTVSIYGVFHRKHIDFVSNPLSAIFTT
notes: FN3 domain; E. coli lysate in the ELISA
B2: ISOP121BR5P1A6 (designed binder, not shown: small tags and cut ends)
chain: LPAPKNLVVSRVTEDSARLSWASWLVAFFDSFLIQYQESEKVGEAIVLTVPGSERSYDLTGLKPGTEYTVSIYGVYQRHASAFVSNPLSAIFTT
notes: as for B1
B3: ISOP121BR5P1C5 (designed binder, not shown: small tags and cut ends)
chain: LPAPKNLVVSRVTEDSARLSWFRLRIVQTFDSFLIQYQESEKVGEAIVLTVPGSERSYDLTGLKPGTEYTVSIYGVITVVELLQQSNPLSAIFTT
notes: as for B1
B4: ISOP121BR5P1D7 (designed binder, not shown: small tags and cut ends)
chain: LPAPKNLGCFSRYRRLSRLSWETPYPSLSNFDSFLIQYQESEKVGEAIVLTVPGSERSYDLTGLKPGTEYTVSIYGVLKLSAAWWPSNPLSAIFTT
notes: as for B1
B5: ISOP121AR5P1G6 (designed binder, not shown: small tags and cut ends)
chain: LPAPKNLVVSRVTEDSARLSWHATFGDPFDSFLIQYQESEKVGEAIVLTVPGSERSYDLTGLKPGTEYTVSIYGVGRHYTVYDSNPLSAIFTT
notes: as for B1
B6: ISOP121AR5P1E7 (designed binder, not shown: small tags and cut ends)
chain: LPAPKNLVVSRVTEDSARLSWHVYHEIDYFDSFLIQYQESEKVGEAIVLTVPGSERSYDLTGLKPGTEYTVSIYGVYQRKVEFYSNPLSAIFTT
notes: as for B1
B7: ISOP121AR5P1A10 (designed binder, not shown: small tags and cut ends)
chain: LPAPKNLVVSRVTEDSARLSWPDWSNSEYFDSFLIQYQESEKVGEAIVLTVPGSERSYDLTGLKPGTEYTVSIYGVYARHRLFVSNPLSAIFTT
notes: as for B1
B8: ISOP194AR9P1C3 (designed binder, not shown: small tags and cut ends)
chain: LPAPKNLVVSRVTQNSARLSWEWLEHFDSFLIHYQESEKVGEAIVLTVPGSERSYDLTGLKPGTEYTVSIYGVYQRKVEFHSNPLSAIFTT
notes: as for B1
B9: ISOP194AR9P1H9 (designed binder, not shown: small tags and cut ends)
chain: B8 chain with Q14E, N15D, L31Q, H33Q
notes: as for B1

The binders below were run against recombinant biotinylated PD-L1 (rhPD-L1/Fc Chimera, R&D Systems 156-B7) (human) (UniProt Q9NZQ7) (assay: ELISA, lysate on plate-bound antigen).
With B1 the binding was “binds”.
With B2 the binding was “binds”.
B3 was tested, and the binding was “binds”.
In the case of B4, the binding is reported as “binds”.
With B5 the binding was “binds”.
In the case of B6, the binding is reported as “binds”.
In the case of B7, the binding is reported as “binds”.
For B8, the binding was “binds”.
For B9, the binding was “binds”.
